Measurements from paper PMC12279241.
These are yes or no findings as the source states them, for the method shown. Binding calls can cover weak binding; strength is not graded here. For some assays here: Binding seen in cells or lysates may run through a third protein.

T1: TMCO3 (IP experiments whose cells are not stated) (UniProt Q6UWJ1)
T1 sequence: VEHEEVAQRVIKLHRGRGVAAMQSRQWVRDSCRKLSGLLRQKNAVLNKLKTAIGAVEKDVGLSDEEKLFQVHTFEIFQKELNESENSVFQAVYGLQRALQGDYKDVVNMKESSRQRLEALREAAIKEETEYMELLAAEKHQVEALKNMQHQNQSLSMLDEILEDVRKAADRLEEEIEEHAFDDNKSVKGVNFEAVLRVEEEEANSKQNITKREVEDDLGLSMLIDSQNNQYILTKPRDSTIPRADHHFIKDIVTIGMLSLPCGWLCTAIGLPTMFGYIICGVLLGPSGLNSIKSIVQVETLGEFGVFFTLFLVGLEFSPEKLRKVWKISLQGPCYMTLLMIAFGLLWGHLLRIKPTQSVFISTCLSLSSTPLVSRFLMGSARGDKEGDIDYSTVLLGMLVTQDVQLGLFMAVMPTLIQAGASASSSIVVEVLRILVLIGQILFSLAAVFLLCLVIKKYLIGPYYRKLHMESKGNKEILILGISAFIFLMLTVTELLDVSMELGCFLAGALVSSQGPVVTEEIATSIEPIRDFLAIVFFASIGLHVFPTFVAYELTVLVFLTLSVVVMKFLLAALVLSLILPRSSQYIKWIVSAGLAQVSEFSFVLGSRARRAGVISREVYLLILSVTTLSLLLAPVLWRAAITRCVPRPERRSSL

T2: TMCO3‐S85A (UniProt Q6UWJ1)
T2 sequence: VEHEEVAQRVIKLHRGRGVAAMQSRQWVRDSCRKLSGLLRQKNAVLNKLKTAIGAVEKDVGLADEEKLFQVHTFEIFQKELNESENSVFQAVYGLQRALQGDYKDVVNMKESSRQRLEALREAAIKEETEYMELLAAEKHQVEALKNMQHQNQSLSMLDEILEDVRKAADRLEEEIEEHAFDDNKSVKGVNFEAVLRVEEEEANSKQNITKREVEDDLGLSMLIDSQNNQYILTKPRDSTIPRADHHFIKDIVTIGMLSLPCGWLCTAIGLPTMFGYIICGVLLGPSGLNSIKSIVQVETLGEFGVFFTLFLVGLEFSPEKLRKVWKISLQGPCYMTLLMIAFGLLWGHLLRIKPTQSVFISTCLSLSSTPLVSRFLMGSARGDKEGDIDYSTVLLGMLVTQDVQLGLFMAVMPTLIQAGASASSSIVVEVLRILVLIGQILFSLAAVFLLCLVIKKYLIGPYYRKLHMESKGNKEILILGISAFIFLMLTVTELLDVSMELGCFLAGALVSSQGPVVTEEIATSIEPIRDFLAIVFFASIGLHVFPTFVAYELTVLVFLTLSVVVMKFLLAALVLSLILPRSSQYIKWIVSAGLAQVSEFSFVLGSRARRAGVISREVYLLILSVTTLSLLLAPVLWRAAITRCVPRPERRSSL

T3: TMCO3‐S85D (UniProt Q6UWJ1)
T3 sequence: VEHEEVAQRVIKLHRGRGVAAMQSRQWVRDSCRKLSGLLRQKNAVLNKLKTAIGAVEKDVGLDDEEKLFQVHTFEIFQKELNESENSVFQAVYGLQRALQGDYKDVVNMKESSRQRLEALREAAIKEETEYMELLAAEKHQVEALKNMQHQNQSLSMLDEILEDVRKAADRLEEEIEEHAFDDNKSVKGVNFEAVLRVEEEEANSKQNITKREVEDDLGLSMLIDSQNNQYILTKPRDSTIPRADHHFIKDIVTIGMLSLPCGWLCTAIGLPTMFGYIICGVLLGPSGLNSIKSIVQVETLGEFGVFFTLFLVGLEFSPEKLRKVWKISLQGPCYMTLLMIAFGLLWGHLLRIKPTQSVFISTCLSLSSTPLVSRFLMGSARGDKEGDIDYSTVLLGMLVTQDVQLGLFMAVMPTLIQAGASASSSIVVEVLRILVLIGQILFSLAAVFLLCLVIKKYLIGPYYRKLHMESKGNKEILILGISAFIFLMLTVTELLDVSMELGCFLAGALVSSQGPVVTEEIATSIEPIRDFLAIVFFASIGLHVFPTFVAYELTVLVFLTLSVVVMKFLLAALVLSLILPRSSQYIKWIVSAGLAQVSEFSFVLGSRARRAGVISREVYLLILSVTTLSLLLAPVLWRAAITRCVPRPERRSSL


What was measured:
[1] = molecular target: T1, TMCO3 (IP experiments whose cells are not stated); assay: co-IP; IP after transfection of TMCO3-WT, TMCO3-S85A, TMCO3-S85D or control; cells not given
TMCO3‐S85A = molecular target: T2, TMCO3‐S85A; assay: as above
TMCO3‐S85D = molecular target: T3, TMCO3‐S85D; assay: as above
[2] = molecular target: T1, TMCO3 (IP experiments whose cells are not stated); assay: co-IP; IP assays with increasing IGF stimulation time and increasing dosage of TMCO3; cells not given
GST‐AKT = assay: pull-down; GST pull-down; GST-AKT purified from E.coli, Flag-TMCO3 purified from 293T cells; both purified

binding [1]	binding (TMCO3‐S85A)	binding (TMCO3‐S85D)	binding [2]	binding (GST‐AKT)	Molecule
binds	binds	binds	binds	–	AKT (IP experiments whose cells are not stated)
–	–	–	–	binds	TMCO3 (transmembrane and coiled‐coil domains 3), full length, expressed in 293T cells (protein, UniProt Q6UWJ1 23-677) VEHEEVAQRVIKLHRGRGVAAMQSRQWVRDSCRKLSGLLRQKNAVLNKLKTAIGAVEKDVGLSDEEKLFQVHTFEIFQKELNESENSVFQAVYGLQRALQGDYKDVVNMKESSRQRLEALREAAIKEETEYMELLAAEKHQVEALKNMQHQNQSLSMLDEILEDVRKAADRLEEEIEEHAFDDNKSVKGVNFEAVLRVEEEEANSKQNITKREVEDDLGLSMLIDSQNNQYILTKPRDSTIPRADHHFIKDIVTIGMLSLPCGWLCTAIGLPTMFGYIICGVLLGPSGLNSIKSIVQVETLGEFGVFFTLFLVGLEFSPEKLRKVWKISLQGPCYMTLLMIAFGLLWGHLLRIKPTQSVFISTCLSLSSTPLVSRFLMGSARGDKEGDIDYSTVLLGMLVTQDVQLGLFMAVMPTLIQAGASASSSIVVEVLRILVLIGQILFSLAAVFLLCLVIKKYLIGPYYRKLHMESKGNKEILILGISAFIFLMLTVTELLDVSMELGCFLAGALVSSQGPVVTEEIATSIEPIRDFLAIVFFASIGLHVFPTFVAYELTVLVFLTLSVVVMKFLLAALVLSLILPRSSQYIKWIVSAGLAQVSEFSFVLGSRARRAGVISREVYLLILSVTTLSLLLAPVLWRAAITRCVPRPERRSSL
